Values of other authors, collected in patent US20030104507A1, “Method for detection of ATP” (priority 2001, published 2003).

The chains behind the UniProt entries cited, without tags or fusion partners.
UniProt P08659, whole entry: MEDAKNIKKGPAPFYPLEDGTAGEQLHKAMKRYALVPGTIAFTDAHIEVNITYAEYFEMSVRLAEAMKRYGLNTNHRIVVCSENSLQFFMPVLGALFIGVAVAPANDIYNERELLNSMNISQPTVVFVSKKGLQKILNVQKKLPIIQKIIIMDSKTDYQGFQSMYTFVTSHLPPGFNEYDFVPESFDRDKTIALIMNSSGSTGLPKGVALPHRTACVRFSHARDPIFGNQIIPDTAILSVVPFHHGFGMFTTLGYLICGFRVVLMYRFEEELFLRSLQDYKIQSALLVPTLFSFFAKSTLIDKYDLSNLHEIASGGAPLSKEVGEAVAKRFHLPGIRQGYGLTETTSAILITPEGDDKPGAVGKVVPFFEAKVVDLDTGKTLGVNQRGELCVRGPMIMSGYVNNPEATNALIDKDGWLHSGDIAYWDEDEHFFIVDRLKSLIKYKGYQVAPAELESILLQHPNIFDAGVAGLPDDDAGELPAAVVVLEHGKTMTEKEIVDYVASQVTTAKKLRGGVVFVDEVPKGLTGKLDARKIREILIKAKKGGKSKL

Molecular target: native firefly luciferase (Photinus pyralis, UniProt P08659)
Settings: cited from earlier work

CC(C)(C)CC(C)(C)c1ccc(OCCOCC[N+](C)(C)Cc2ccccc2)cc1 [benzethonium chloride]
effect on native firefly luciferase: inactivated
